In publication PMC4813545 one finds binding data, which are given here for one substance.

Protein sequences, listed by entry. Tags and fused reporters are not part of them.
UniProt Q8TCU6: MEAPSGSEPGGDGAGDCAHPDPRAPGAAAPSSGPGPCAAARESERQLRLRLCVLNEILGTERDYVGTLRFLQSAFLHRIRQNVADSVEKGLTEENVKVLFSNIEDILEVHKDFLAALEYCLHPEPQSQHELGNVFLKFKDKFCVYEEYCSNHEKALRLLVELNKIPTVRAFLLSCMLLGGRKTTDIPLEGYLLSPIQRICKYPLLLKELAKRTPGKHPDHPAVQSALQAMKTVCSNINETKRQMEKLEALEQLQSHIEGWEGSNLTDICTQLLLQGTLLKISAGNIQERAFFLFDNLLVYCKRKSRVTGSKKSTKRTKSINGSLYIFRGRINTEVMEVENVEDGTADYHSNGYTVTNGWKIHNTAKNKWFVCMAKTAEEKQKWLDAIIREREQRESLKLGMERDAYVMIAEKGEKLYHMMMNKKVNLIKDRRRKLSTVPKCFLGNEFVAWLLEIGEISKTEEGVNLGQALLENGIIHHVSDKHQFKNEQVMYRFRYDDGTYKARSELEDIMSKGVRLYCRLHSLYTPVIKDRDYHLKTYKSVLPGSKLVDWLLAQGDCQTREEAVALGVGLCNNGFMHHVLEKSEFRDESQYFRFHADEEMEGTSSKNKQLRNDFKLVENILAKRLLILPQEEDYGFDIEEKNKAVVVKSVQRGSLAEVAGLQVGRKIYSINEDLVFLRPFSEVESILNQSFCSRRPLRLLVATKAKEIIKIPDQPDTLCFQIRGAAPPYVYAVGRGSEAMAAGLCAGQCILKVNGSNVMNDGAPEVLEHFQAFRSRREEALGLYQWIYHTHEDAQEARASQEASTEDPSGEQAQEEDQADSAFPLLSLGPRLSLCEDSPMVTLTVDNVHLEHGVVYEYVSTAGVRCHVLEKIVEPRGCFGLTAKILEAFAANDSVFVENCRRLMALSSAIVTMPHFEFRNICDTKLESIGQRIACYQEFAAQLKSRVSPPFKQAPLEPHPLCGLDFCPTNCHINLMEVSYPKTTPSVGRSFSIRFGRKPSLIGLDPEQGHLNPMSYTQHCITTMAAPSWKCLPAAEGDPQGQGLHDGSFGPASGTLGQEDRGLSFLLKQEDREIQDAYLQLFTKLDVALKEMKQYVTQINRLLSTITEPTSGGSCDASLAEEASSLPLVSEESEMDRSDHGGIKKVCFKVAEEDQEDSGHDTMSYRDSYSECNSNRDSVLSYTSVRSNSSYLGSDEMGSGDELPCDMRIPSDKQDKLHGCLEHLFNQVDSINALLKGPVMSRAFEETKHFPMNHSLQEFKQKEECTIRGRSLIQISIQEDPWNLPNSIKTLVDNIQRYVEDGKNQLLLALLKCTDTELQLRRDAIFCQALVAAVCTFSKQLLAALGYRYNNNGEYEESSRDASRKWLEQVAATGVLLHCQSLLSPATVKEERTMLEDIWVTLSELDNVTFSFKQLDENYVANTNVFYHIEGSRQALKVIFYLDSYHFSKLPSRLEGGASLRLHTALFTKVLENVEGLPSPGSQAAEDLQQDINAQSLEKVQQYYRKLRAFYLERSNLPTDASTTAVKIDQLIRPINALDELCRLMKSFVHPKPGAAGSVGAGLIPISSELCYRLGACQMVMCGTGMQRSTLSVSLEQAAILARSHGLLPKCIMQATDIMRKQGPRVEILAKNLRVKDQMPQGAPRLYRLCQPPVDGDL

Results are given in words; binding and its absence hold for the method and conditions named. Binding seen in cells or lysates may run through a third protein. Some binding calls cover weakened binding; strength is not graded here.

This assay addresses T1, endogenous Norbin of HEK-293 cells (human (endogenous in HEK-293)) (UniProt Q9UBB6).
T1 sequence: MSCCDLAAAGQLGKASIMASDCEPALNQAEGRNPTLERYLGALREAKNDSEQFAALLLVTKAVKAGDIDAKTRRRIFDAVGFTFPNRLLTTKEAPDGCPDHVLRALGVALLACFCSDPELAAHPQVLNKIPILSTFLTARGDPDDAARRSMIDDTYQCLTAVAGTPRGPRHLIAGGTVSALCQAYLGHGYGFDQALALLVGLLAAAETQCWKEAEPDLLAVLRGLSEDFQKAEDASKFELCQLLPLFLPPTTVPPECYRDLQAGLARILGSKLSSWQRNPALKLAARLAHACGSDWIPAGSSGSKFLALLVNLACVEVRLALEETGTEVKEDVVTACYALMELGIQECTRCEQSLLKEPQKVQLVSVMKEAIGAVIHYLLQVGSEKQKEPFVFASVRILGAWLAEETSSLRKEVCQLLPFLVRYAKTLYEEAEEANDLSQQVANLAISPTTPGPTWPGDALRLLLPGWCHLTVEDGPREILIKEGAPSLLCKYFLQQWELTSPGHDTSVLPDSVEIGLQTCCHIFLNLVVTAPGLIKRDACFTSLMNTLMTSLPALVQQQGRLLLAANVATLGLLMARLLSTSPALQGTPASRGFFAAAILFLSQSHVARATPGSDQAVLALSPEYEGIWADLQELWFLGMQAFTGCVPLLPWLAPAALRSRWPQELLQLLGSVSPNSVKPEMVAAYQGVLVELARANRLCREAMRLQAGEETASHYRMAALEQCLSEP
Briefly: co-IP; HEK-293 lysate (1% Nonidet P-40 lysis buffer); immunoprecipitation with a pool of Norbin antibodies (C1, N4, N7) and protein A-Sepharose, mock with human serum IgG; Western blot with P-Rex1 6F12 and Norbin C3. For orientation: Immunoblotting shows a protein as a band on a membrane.

Turning to “endogenous P-Rex1 of HEK-293 cells (from UniProt Q8TCU6 1-1659)”, the binding result is “binds”.
